Source: paper PMC8231170, “Biphenylalkoxyamine Derivatives–Histamine H3 Receptor Ligands with Butyrylcholinesterase Inhibitory Activity” (Molecules, 2021)

Tested on: mouse model of scopolamine-induced memory impairments
Experiment: step-through Passive Avoidance Task
Type: in vivo
Conditions: scopolamine 1 mg/kg i.p. alone, mice, 24 h after acquisition
Method: This procedure was created for studying short-term memory as well as long-term memory. The paradigm requires the rodents to behave contrary to their innate preference for dark areas and for avoiding bright ones.
The experiments were carried out on adult male Albino Swiss mice (CD-1, 18–25 g). […] Experimental groups consisted of 6–12 animals, all the animals were used only once and they were killed by cervical dislocation immediately after the assay. Behavioral measures were scored by trained observers, which were blind to experimental conditions. Treatment of laboratory animals in the present study was in full accordance with the respective Polish regulations.
Control animals (negative control) were given an appropriate amount of vehicle (1% aqueous solution of Tween 80; i.p.) 30 min before the test.
The task was performed according to the method described previously. Briefly, the test was conducted in the apparatus with two compartments (LE872, Bioseb, France). The illuminated white compartment (20 cm × 21 cm × 20 cm, 1000 lx) was separated by an automated sliding gate with the smaller dark compartment (7.3 cm × 7.5 cm × 14 cm, 10 lx) equipped with an electric grid floor. […] The latency time to cross through the gate between the compartments was measured.

CN1[C@@H]2C[C@@H](OC(=O)[C@H](CO)c3ccccc3)C[C@H]1[C@@H]1O[C@@H]12 [Scopolamine, scopolamine, reference compound]
latency time, retention trial: 35.8 ± 7.8 s
